The test system of the data set is CART19 cells. The data set is described as follows: RNA-sequencing of CART19 cells co-cultured with irradiated JeKo cells. To be noted: 10 μM, 72 hours, vs DMSO control. The format is cell-based, human.

These results are taken from patent US20260083848A1, “COMBINATION OF CAR T-CELL THERAPY WITH BTK INHIBITORS AND METHODS OF USE THEREOF” (priority 2021, published 2026).

With `NC(=O)[C@H]1CCN(c2ncnc(N)c2F)C[C@@H]1N1CCC[C@@H](Nc2cc(Cl)cc(C(F)(F)F)c2)C1=O` [vecabrutinib, (3R,3′R,4′S)-1′-(6-amino-5-fluoropyrimidin-4-yl)-3-((3-chloro-5-(trifluoromethyl)phenyl)amino)-2-oxo-[1,3′-bipiperidine]-4′-carboxamide], the genes downregulated entry was “approximately 400 genes”; the “genes involved in the PI3K/AKT pathway and the Th1 pathway” value is given as “upregulated”; the genes upregulated result is given as “approximately 400 genes”. Where the note is “FIG. 5”, the genes differentially regulated result is given as “approximately 800 genes”.
